These are yes or no findings as the source states them, for the method shown. For part of these data: In cells and extracts the contact can be indirect. Some results given as binding are weak or reduced against the parent protein; the word gives no strength. Sequences can lack the tags named with a protein.
T1: SPL15 fused to the C-terminal fragment of YFP (BiFC) (Arabidopsis thaliana) (UniProt Q9M2Q6)
T1 sequence: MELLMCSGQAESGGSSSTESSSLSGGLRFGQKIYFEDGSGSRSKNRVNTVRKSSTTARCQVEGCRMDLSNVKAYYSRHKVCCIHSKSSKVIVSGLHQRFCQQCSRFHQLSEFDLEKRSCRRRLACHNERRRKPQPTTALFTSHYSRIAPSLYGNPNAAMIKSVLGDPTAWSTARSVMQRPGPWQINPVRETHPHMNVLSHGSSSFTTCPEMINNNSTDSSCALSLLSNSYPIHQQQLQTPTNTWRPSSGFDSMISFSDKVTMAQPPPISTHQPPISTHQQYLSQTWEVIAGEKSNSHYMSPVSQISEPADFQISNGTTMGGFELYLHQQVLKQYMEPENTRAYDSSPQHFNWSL

T2: SPL9 fused to the C-terminal fragment of YFP (BiFC) (Arabidopsis thaliana) (UniProt Q700W2)
T2 sequence: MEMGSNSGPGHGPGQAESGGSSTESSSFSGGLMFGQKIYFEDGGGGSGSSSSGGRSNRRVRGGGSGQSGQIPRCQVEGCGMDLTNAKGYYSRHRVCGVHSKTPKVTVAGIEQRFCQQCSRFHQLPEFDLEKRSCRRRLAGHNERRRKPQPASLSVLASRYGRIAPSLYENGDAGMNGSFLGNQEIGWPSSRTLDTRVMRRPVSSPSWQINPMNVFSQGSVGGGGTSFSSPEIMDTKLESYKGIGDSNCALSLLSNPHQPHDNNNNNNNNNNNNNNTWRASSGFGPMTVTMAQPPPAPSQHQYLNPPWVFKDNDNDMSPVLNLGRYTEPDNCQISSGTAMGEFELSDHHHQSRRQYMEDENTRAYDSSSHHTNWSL

T3: SPL15 (yeast two-hybrid fusion) (Arabidopsis thaliana) (UniProt Q9M2Q6)
T3 sequence: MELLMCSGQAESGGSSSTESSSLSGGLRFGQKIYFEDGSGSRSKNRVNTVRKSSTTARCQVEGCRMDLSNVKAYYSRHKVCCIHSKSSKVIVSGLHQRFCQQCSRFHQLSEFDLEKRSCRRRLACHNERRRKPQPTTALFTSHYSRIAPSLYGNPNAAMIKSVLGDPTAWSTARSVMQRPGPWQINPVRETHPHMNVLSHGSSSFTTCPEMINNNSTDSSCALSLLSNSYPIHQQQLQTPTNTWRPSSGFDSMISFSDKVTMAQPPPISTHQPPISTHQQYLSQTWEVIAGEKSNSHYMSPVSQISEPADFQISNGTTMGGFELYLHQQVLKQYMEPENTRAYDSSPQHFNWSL

T4: SPL9 (yeast two-hybrid fusion) (Arabidopsis thaliana) (UniProt Q700W2)
T4 sequence: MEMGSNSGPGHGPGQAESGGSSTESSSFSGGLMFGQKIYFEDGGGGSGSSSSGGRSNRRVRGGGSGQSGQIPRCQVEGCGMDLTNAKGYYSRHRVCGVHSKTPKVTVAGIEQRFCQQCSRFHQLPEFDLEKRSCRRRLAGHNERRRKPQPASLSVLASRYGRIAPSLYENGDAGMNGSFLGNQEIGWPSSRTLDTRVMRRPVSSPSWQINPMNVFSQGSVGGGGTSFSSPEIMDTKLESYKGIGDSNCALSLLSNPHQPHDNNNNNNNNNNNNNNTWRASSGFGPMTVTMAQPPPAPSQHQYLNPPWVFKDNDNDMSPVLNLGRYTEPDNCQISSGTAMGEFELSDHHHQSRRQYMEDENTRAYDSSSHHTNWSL


What was measured:
[1] = target: T1, SPL15 fused to the C-terminal fragment of YFP (BiFC) (Arabidopsis thaliana); test: split reporter; BiFC (nYFP/cYFP) in N. benthamiana leaf epidermal cells; fluorescence visualized 48 h after infiltration, confocal microscope
[2] = target: T2, SPL9 fused to the C-terminal fragment of YFP (BiFC) (Arabidopsis thaliana); test: as above
[3] = target: T3, SPL15 (yeast two-hybrid fusion) (Arabidopsis thaliana); test: two-hybrid; LexA/AD system in yeast strain EGY48 plus H18; SD/-Ura/-Trp/-His, then raffinose, galactose and X-gal for blue color development
[4] = target: T4, SPL9 (yeast two-hybrid fusion) (Arabidopsis thaliana); test: as above

| Binder | binding [1] | binding [2] | binding [3] | binding [4] |
| --- | --- | --- | --- | --- |
| FHY3 fused to the N-terminal fragment of YFP (BiFC) (protein, UniProt Q9LIE5 1-839) MDIDLRLHSGDLCKGDDEDRGLDNVLHNEEDMDIGKIEDVSVEVNTDDSVGMGVPTGELVEYTEGMNLEPLNGMEFESHGEAYSFYQEYSRAMGFNTAIQNSRRSKTTREFIDAKFACSRYGTKREYDKSFNRPRARQSKQDPENMAGRRTCAKTDCKASMHVKRRPDGKWVIHSFVREHNHELLPAQAVSEQTRKIYAAMAKQFAEYKTVISLKSDSKSSFEKGRTLSVETGDFKILLDFLSRMQSLNSNFFYAVDLGDDQRVKNVFWVDAKSRHNYGSFCDVVSLDTTYVRNKYKMPLAIFVGVNQHYQYMVLGCALISDESAATYSWLMETWLRAIGGQAPKVLITELDVVMNSIVPEIFPNTRHCLFLWHVLMKVSENLGQVVKQHDNFMPKFEKCIYKSGKDEDFARKWYKNLARFGLKDDQWMISLYEDRKKWAPTYMTDVLLAGMSTSQRADSINAFFDKYMHKKTSVQEFVKVYDTVLQDRCEEEAKADSEMWNKQPAMKSPSPFEKSVSEVYTPAVFKKFQIEVLGAIACSPREENRDATCSTFRVQDFENNQDFMVTWNQTKAEVSCICRLFEYKGYLCRHTLNVLQCCHLSSIPSQYILKRWTKDAKSRHFSGEPQQLQTRLLRYNDLCERALKLNEEASLSQESYNIAFLAIEGAIGNCAGINTSGRSLPDVVTSPTQGLISVEEDNHSRSAGKTSKKKNPTKKRKVNPEQDVMPVAAPESLQQMDKLSPRTVGIESYYGTQQSVQGMVQLNLMGPTRDNFYGNQQTMQGLRQLNSIAPSYDSYYGPQQGIHGQGVDFFRPANFSYDIRDDPNVRTTQLHEDASRHS | binds | binds | – | – |
| FAR1 fused to the N-terminal fragment of YFP (BiFC) (protein, UniProt Q9SWG3 1-827) MDLQENLVSDAGDDHMVDIVVEPHSNRDIGIVDEFNIGGDVGFSGDLDLEPRNGIDFDTHEAAYIFYQEYAKSMGFTTSIKNSRRSKKTKDFIDAKFACSRYGVTPESESSGSSSRRSTVKKTDCKASMHVKRRPDGKWIIHEFVKDHNHELLPALAYHFRIQRNVKLAEKNNIDILHAVSERTKKMYVEMSRQSGGYKNIGSLLQTDVSSQVDKGRYLALEEGDSQVLLEYFKRIKKENPKFFYAIDLNEDQRLRNLFWADAKSRDDYLSFNDVVSFDTTYVKFNDKLPLALFIGVNHHSQPMLLGCALVADESMETFVWLIKTWLRAMGGRAPKVILTDQDKFLMSAVSELLPNTRHCFALWHVLEKIPEYFSHVMKRHENFLLKFNKCIFRSWTDDEFDMRWWKMVSQFGLENDEWLLWLHEHRQKWVPTFMSDVFLAGMSTSQRSESVNSFFDKYIHKKITLKEFLRQYGVILQNRYEEESVADFDTCHKQPALKSPSPWEKQMATTYTHTIFKKFQVEVLGVVACHPRKEKEDENMATFRVQDCEKDDDFLVTWSKTKSELCCFCRMFEYKGFLCRHALMILQMCGFASIPPQYILKRWTKDAKSGVLAGEGADQIQTRVQRYNDLCSRATELSEEGCVSEENYNIALRTLVETLKNCVDMNNARNNITESNSQLNNGTHEEENQVMAGVKATKKKTVYRKRKGQQEASQMLESQQSLQPMETISSEAMDMNGYYGPQQNVQGLLNLMEPPHEGYYVDQRTIQGLGQLNSIAPAQDSFFTNQQAMSGMVGQIDFRPPPNFTYTLQEEHLSSAQLPGSSSRQL | binds | binds | – | – |
| SMXL8 (yeast two-hybrid fusion) (protein, UniProt F4IGZ2 1-910) MPTAVNVAKQCLTAEASYALEEAVNVARRRGHSQTTSLHAISALLSLPTSVLRDACARVRNSAYSPRLQFKALDLCLSVSLDRIQSGHQLGSDDSPPVSNSLMAAIKRSQAHQRRLPENFRIYQEMSQSQNQNSLSCVKVELRQLILSILDDPVVSRVFGEAGFRSSELKLSIIRPVPHLLRYSSQQPLFLCNLTGNPEPNPVRWGFTVPSLNFNGDLDYRRISAVFTKDKGRNPLLVGVSAYGVLTSYLNSLEKNQTDGMILPTKLHGLTAVNIGSEISDQISVKFDKTYTDTRFHDLGKLAEQGSGPGLLLHYGDLRVFTNGEGNVPAANYIVNRISELLRRHGRRVWLIGATTSNEVYEKMMRRFPNVEKDWDLQLLTITSLKPCLPHNKSSLIGSFVPFGGFFSTTPSELKLPFSGFKTEITGPVSSISDQTQSTLPPWLQMTTRTDLNQKSSAKVVQTKEGLESVCGNKFTSSASASTCSAKSVTTDLNLRVSSVTTGSGLKKHLDSKDFSQPQSVSSYSFDNPRDLNAESFKIIYRRLTDMVSGQDEAARVISCALSQPPKSVTRRDVWLNLVGPDTVGKRRMSLVLAEIVYQSEHRFMAVDLGAAEQGMGGCDDPMRLRGKTMVDHIFEVMCRNPFCVVFLENIEKADEKLQMSLSKAIETGKFMDSHGREVGIGNTIFVMTSSSQGSATTTSYSEEKLLRVKGRQVEIRIETVSSLPMVRSVYGPTSVNKRKLMGLGNLQETKDTVESVKRLNRTTNGVLDLNLPAQETEIEEKYHCEENSNVWLMNLKNHKRLIEVPFKPFDFEGLAEKIKKSVKENFDKCVRSDCLLEVDPKIIERLLAAVYFSDSRKDIKELLENIMSPVFLRIKERYEITTSCVVKLVGRDLDIFLEDQMDLFFVKSQ | – | – | binds | binds |
| SMXL6 SPYNE fusion (BiFC) (protein, UniProt Q9LML2 1-979) MPTPVTTARECLTEEAARALDDAVVVARRRSHAQTTSLHAVSALLAMPSSILREVCVSRAARSVPYSSRLQFRALELCVGVSLDRLPSSKSPATEEDPPVSNSLMAAIKRSQANQRRHPESYHLQQIHASNNGGGGCQTTVLKVELKYFILSILDDPIVNRVFGEAGFRSSEIKLDVLHPPVTQLSSRFSRGRCPPLFLCNLPNSDPNREFPFSGSSGFDENSRRIGEVLGRKDKKNPLLIGNCANEALKTFTDSINSGKLGFLQMDISGLSLISIEKEISEILADGSKNEEEIRMKVDDLGRTVEQSGSKSGIVLNLGELKVLTSEANAALEILVSKLSDLLKHESKQLSFIGCVSSNETYTKLIDRFPTIEKDWDLHVLPITASTKPSTQGVYPKSSLMGSFVPFGGFFSSTSNFRVPLSSTVNQTLSRCHLCNEKYLQEVAAVLKAGSSLSLADKCSEKLAPWLRAIETKEDKGITGSSKALDDANTSASQTAALQKKWDNICQSIHHTPAFPKLGFQSVSPQFPVQTEKSVRTPTSYLETPKLLNPPISKPKPMEDLTASVTNRTVSLPLSCVTTDFGLGVIYASKNQESKTTREKPMLVTLNSSLEHTYQKDFKSLREILSRKVAWQTEAVNAISQIICGCKTDSTRRNQASGIWLALLGPDKVGKKKVAMTLSEVFFGGKVNYICVDFGAEHCSLDDKFRGKTVVDYVTGELSRKPHSVVLLENVEKAEFPDQMRLSEAVSTGKIRDLHGRVISMKNVIVVVTSGIAKDNATDHVIKPVKFPEEQVLSARSWKLQIKLGDATKFGVNKRKYELETAQRAVKVQRSYLDLNLPVNETEFSPDHEAEDRDAWFDEFIEKVDGKVTFKPVDFDELAKNIQEKIGSHFERCFGSETHLELDKEVILQILAASWSSLSSGEEEGRTIVDQWMQTVLARSFAEAKQKYGSNPMLGVKLVASSSGLASGVELPAKVDVIW | binds | binds | – | – |
| SMXL8 SPYNE fusion (BiFC) (protein, UniProt F4IGZ2 1-910) MPTAVNVAKQCLTAEASYALEEAVNVARRRGHSQTTSLHAISALLSLPTSVLRDACARVRNSAYSPRLQFKALDLCLSVSLDRIQSGHQLGSDDSPPVSNSLMAAIKRSQAHQRRLPENFRIYQEMSQSQNQNSLSCVKVELRQLILSILDDPVVSRVFGEAGFRSSELKLSIIRPVPHLLRYSSQQPLFLCNLTGNPEPNPVRWGFTVPSLNFNGDLDYRRISAVFTKDKGRNPLLVGVSAYGVLTSYLNSLEKNQTDGMILPTKLHGLTAVNIGSEISDQISVKFDKTYTDTRFHDLGKLAEQGSGPGLLLHYGDLRVFTNGEGNVPAANYIVNRISELLRRHGRRVWLIGATTSNEVYEKMMRRFPNVEKDWDLQLLTITSLKPCLPHNKSSLIGSFVPFGGFFSTTPSELKLPFSGFKTEITGPVSSISDQTQSTLPPWLQMTTRTDLNQKSSAKVVQTKEGLESVCGNKFTSSASASTCSAKSVTTDLNLRVSSVTTGSGLKKHLDSKDFSQPQSVSSYSFDNPRDLNAESFKIIYRRLTDMVSGQDEAARVISCALSQPPKSVTRRDVWLNLVGPDTVGKRRMSLVLAEIVYQSEHRFMAVDLGAAEQGMGGCDDPMRLRGKTMVDHIFEVMCRNPFCVVFLENIEKADEKLQMSLSKAIETGKFMDSHGREVGIGNTIFVMTSSSQGSATTTSYSEEKLLRVKGRQVEIRIETVSSLPMVRSVYGPTSVNKRKLMGLGNLQETKDTVESVKRLNRTTNGVLDLNLPAQETEIEEKYHCEENSNVWLMNLKNHKRLIEVPFKPFDFEGLAEKIKKSVKENFDKCVRSDCLLEVDPKIIERLLAAVYFSDSRKDIKELLENIMSPVFLRIKERYEITTSCVVKLVGRDLDIFLEDQMDLFFVKSQ | binds | binds | – | – |
| FHY3-I domain (yeast two-hybrid fusion) (domain or fragment, UniProt Q9LIE5 1-251) MDIDLRLHSGDLCKGDDEDRGLDNVLHNEEDMDIGKIEDVSVEVNTDDSVGMGVPTGELVEYTEGMNLEPLNGMEFESHGEAYSFYQEYSRAMGFNTAIQNSRRSKTTREFIDAKFACSRYGTKREYDKSFNRPRARQSKQDPENMAGRRTCAKTDCKASMHVKRRPDGKWVIHSFVREHNHELLPAQAVSEQTRKIYAAMAKQFAEYKTVISLKSDSKSSFEKGRTLSVETGDFKILLDFLSRMQSLNSN | – | – | binds | binds |
